Experimental data as given in the supplement of paper PMC8728848.
The list shows a part of the results.

Key:
Assay in all cases: glycan array binding signal (z-score within array); higher = stronger binding
Conditions in all cases: glycan notation: IUPAC condensed, linker removed
[1] = target: GlcNAc(a1-4)Gal(b1-3)GlcNAc
Procedure, shortened: (§1)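 Glycan array data came from 3228 arrays in the Consortium for Functional Glycomics database, and only arrays with an available protein sequence were kept. Glycan names were put into IUPAC-condensed notation, and columns mapping to the same glycan were averaged. The binding signal is a within-array Z-score, averaged across arrays of one protein sequence run at different concentrations or buffers and across linkers. A negative Z-score can be read as non-binding.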

[2] = target: GlcNAc(a1-4)Gal(b1-4)GalNAc
Procedure, shortened: as §1

[3] = target: GlcNAc(a1-4)Gal(b1-4)GlcNAc
Procedure, shortened: as §1

[4] = target: GlcNAc(a1-4)Gal(b1-4)GlcNAc(b1-3)Gal(b1-4)Glc
Procedure, shortened: as §1

[5] = target: GlcNAc(a1-4)Gal(b1-4)GlcNAc(b1-3)Gal(b1-4)GlcNAc
Procedure, shortened: as §1

[6] = target: GlcNAc(a1-4)Gal(b1-4)GlcNAc(b1-3)Gal(b1-4)GlcNAc(b1-3)Gal(b1-4)GlcNAc
Procedure, shortened: as §1

[7] = target: GlcNAc(a1-4)Gal(b1-4)GlcNAc(b1-3)Gal(b1-4)[Fuc(a1-3)]GlcNAc(b1-3)Gal(b1-4)[Fuc(a1-3)]GlcNAc
Procedure, shortened: as §1

[8] = target: GlcNAc(a1-6)Gal(b1-4)GlcNAc
Procedure, shortened: as §1

[9] = target: GlcNAc(b1-2)Gal(b1-3)GalNAc
Procedure, shortened: as §1

[10] = target: GlcNAc(b1-2)Man(a1-3)[GlcNAc(b1-2)Man(a1-6)]Man(b1-4)GlcNAc(b1-4)GlcNAc
Procedure, shortened: as §1

[11] = target: GlcNAc(b1-2)Man(a1-3)[GlcNAc(b1-2)Man(a1-6)]Man(b1-4)GlcNAc(b1-4)[Fuc(a1-6)]GlcNAc
Procedure, shortened: as §1

[12] = target: GlcNAc(b1-2)Man(a1-3)[GlcNAc(b1-4)][GlcNAc(b1-2)Man(a1-6)]Man(b1-4)GlcNAc(b1-4)GlcNAc
Procedure, shortened: as §1

[13] = target: GlcNAc(b1-2)Man(a1-3)[GlcNAc(b1-4)][GlcNAc(b1-2)Man(a1-6)]Man(b1-4)GlcNAc(b1-4)[Fuc(a1-6)]GlcNAc
Procedure, shortened: as §1

[14] = target: GlcNAc(b1-2)[GlcNAc(b1-4)]Man(a1-3)[GlcNAc(b1-2)Man(a1-6)]Man(b1-4)GlcNAc(b1-4)GlcNAc
Procedure, shortened: as §1

[15] = target: GlcNAc(b1-2)[GlcNAc(b1-4)]Man(a1-3)[GlcNAc(b1-4)][GlcNAc(b1-2)Man(a1-6)]Man(b1-4)GlcNAc(b1-4)GlcNAc
Procedure, shortened: as §1

[16] = target: GlcNAc(b1-2)[GlcNAc(b1-4)]Man(a1-3)[GlcNAc(b1-4)][GlcNAc(b1-2)[GlcNAc(b1-6)]Man(a1-6)]Man(b1-4)GlcNAc(b1-4)GlcNAc
Procedure, shortened: as §1

[17] = target: GlcNAc(b1-2)[GlcNAc(b1-4)]Man(a1-3)[GlcNAc(b1-4)][GlcNAc(b1-2)[GlcNAc(b1-6)]Man(a1-6)]Man(b1-4)GlcNAc(b1-4)[Fuc(a1-6)]GlcNAc
Procedure, shortened: as §1

[18] = target: GlcNAc(b1-2)[GlcNAc(b1-6)]Man(a1-6)[GlcNAc(b1-2)Man(a1-3)]Man(b1-4)GlcNAc(b1-4)GlcNAc
Procedure, shortened: as §1

[19] = target: GlcNAc(b1-2)[GlcNAc(b1-6)]Man(a1-6)[GlcNAc(b1-2)Man(a1-3)]Man(b1-4)GlcNAc(b1-4)[Fuc(a1-6)]GlcNAc
Procedure, shortened: as §1

[20] = target: GlcNAc(b1-2)[GlcNAc(b1-6)]Man(a1-6)[GlcNAc(b1-4)][GlcNAc(b1-2)Man(a1-3)]Man(b1-4)GlcNAc(b1-4)GlcNAc
Procedure, shortened: as §1

GlcNAc(b1-3)Fuc = target: GlcNAc(b1-3)Fuc
Procedure, shortened: as §1

GlcNAc(b1-3)Gal = target: GlcNAc(b1-3)Gal
Procedure, shortened: as §1

[21] = target: GlcNAc(b1-3)Gal(b1-3)GalNAc
Procedure, shortened: as §1

GlcNAc(b1-3)Gal(b1-4)Glc = target: GlcNAc(b1-3)Gal(b1-4)Glc
Procedure, shortened: as §1

[22] = target: GlcNAc(b1-3)Gal(b1-4)GlcNAc
Procedure, shortened: as §1

[23] = target: GlcNAc(b1-3)Gal(b1-4)GlcNAc(b1-2)Man(a1-3)[GlcNAc(b1-3)Gal(b1-4)GlcNAc(b1-2)Man(a1-6)]Man(b1-4)GlcNAc(b1-4)GlcNAc
Procedure, shortened: as §1

[24] = target: GlcNAc(b1-3)Gal(b1-4)GlcNAc(b1-2)Man(a1-3)[GlcNAc(b1-3)Gal(b1-4)GlcNAc(b1-2)Man(a1-6)]Man(b1-4)GlcNAc(b1-4)[Fuc(a1-6)]GlcNAc
Procedure, shortened: as §1

[25] = target: GlcNAc(b1-3)Gal(b1-4)GlcNAc(b1-2)[GlcNAc(b1-3)Gal(b1-4)GlcNAc(b1-6)]Man(a1-6)[GlcNAc(b1-3)Gal(b1-4)GlcNAc(b1-2)Man(a1-3)]Man(b1-4)GlcNAc(b1-4)GlcNAc
Procedure, shortened: as §1

[26] = target: GlcNAc(b1-3)Gal(b1-4)GlcNAc(b1-3)Gal(b1-4)GlcNAc
Procedure, shortened: as §1

[27] = target: GlcNAc(b1-3)Gal(b1-4)GlcNAc(b1-3)Gal(b1-4)GlcNAc(b1-2)Man(a1-3)[GlcNAc(b1-3)Gal(b1-4)GlcNAc(b1-3)Gal(b1-4)GlcNAc(b1-2)Man(a1-6)]Man(b1-4)GlcNAc(b1-4)GlcNAc
Procedure, shortened: as §1

[28] = target: GlcNAc(b1-3)Gal(b1-4)GlcNAc(b1-3)Gal(b1-4)GlcNAc(b1-2)Man(a1-3)[GlcNAc(b1-3)Gal(b1-4)GlcNAc(b1-3)Gal(b1-4)GlcNAc(b1-2)Man(a1-6)]Man(b1-4)GlcNAc(b1-4)[Fuc(a1-6)]GlcNAc
Procedure, shortened: as §1

[29] = target: GlcNAc(b1-3)Gal(b1-4)GlcNAc(b1-3)Gal(b1-4)GlcNAc(b1-2)[GlcNAc(b1-3)Gal(b1-4)GlcNAc(b1-3)Gal(b1-4)GlcNAc(b1-6)]Man(a1-6)[GlcNAc(b1-3)Gal(b1-4)GlcNAc(b1-3)Gal(b1-4)GlcNAc(b1-2)Man(a1-3)]Man(b1-4)GlcNAc(b1-4)[Fuc(a1-6)]GlcNAc
Procedure, shortened: as §1

[30] = target: GlcNAc(b1-3)Gal(b1-4)GlcNAc(b1-3)Gal(b1-4)GlcNAc(b1-3)Gal(b1-4)GlcNAc(b1-2)Man(a1-3)[GlcNAc(b1-3)Gal(b1-4)GlcNAc(b1-3)Gal(b1-4)GlcNAc(b1-3)Gal(b1-4)GlcNAc(b1-2)Man(a1-6)]Man(b1-4)GlcNAc(b1-4)GlcNAc
Procedure, shortened: as §1

[31] = target: GlcNAc(b1-3)Gal(b1-4)GlcNAc(b1-3)Gal(b1-4)GlcNAc(b1-3)Gal(b1-4)GlcNAc(b1-2)Man(a1-3)[GlcNAc(b1-3)Gal(b1-4)GlcNAc(b1-3)Gal(b1-4)GlcNAc(b1-3)Gal(b1-4)GlcNAc(b1-2)Man(a1-6)]Man(b1-4)GlcNAc(b1-4)[Fuc(a1-6)]GlcNAc
Procedure, shortened: as §1

[32] = target: GlcNAc(b1-3)Gal(b1-4)GlcNAc(b1-3)Gal(b1-4)GlcNAc(b1-3)Gal(b1-4)GlcNAc(b1-2)[GlcNAc(b1-3)Gal(b1-4)GlcNAc(b1-3)Gal(b1-4)GlcNAc(b1-3)Gal(b1-4)GlcNAc(b1-6)]Man(a1-6)[GlcNAc(b1-3)Gal(b1-4)GlcNAc(b1-3)Gal(b1-4)GlcNAc(b1-3)Gal(b1-4)GlcNAc(b1-2)Man(a1-3)]Man(b1-4)GlcNAc(b1-4)[Fuc(a1-6)]GlcNAc
Procedure, shortened: as §1

[33] = target: GlcNAc(b1-3)Gal(b1-4)GlcNAc(b1-3)Gal(b1-4)GlcNAc(b1-3)Gal(b1-4)GlcNAc(b1-3)Gal(b1-4)GlcNAc(b1-2)Man(a1-3)[GlcNAc(b1-3)Gal(b1-4)GlcNAc(b1-3)Gal(b1-4)GlcNAc(b1-3)Gal(b1-4)GlcNAc(b1-3)Gal(b1-4)GlcNAc(b1-2)Man(a1-6)]Man(b1-4)GlcNAc(b1-4)GlcNAc
Procedure, shortened: as §1

[34] = target: GlcNAc(b1-3)Gal(b1-4)GlcNAc(b1-3)Gal(b1-4)GlcNAc(b1-3)Gal(b1-4)GlcNAc(b1-3)Gal(b1-4)GlcNAc(b1-2)Man(a1-3)[GlcNAc(b1-3)Gal(b1-4)GlcNAc(b1-3)Gal(b1-4)GlcNAc(b1-3)Gal(b1-4)GlcNAc(b1-3)Gal(b1-4)GlcNAc(b1-2)Man(a1-6)]Man(b1-4)GlcNAc(b1-4)[Fuc(a1-6)]GlcNAc
Procedure, shortened: as §1

[35] = target: GlcNAc(b1-3)Gal(b1-4)GlcNAc(b1-3)Gal(b1-4)GlcNAc(b1-3)Gal(b1-4)GlcNAc(b1-3)Gal(b1-4)GlcNAc(b1-2)[GlcNAc(b1-3)Gal(b1-4)GlcNAc(b1-3)Gal(b1-4)GlcNAc(b1-3)Gal(b1-4)GlcNAc(b1-3)Gal(b1-4)GlcNAc(b1-6)]Man(a1-6)[GlcNAc(b1-3)Gal(b1-4)GlcNAc(b1-3)Gal(b1-4)GlcNAc(b1-3)Gal(b1-4)GlcNAc(b1-3)Gal(b1-4)GlcNAc(b1-2)Man(a1-3)]Man(b1-4)GlcNAc(b1-4)[Fuc(a1-6)]GlcNAc
Procedure, shortened: as §1

B1: PX14375A-pdi-503-28-503 (Parabacteroides distasonis) (protein)
chain: PLGSPEAGDISEERQAFLRLTAVYSVMKDFRYTWSMQCFGDVLSNDATYSGSSNDAQTFTLLENYQYQADHTEILNKYRYSYQCINKANLFIRDMEMADDALFSKYDKEQMIGEAKFIRAYTYFELVKTFGGVPCYTGVLDLDHERLGRASVEEIYSVIEQDLNDAVSVLPKKSEVANYESSYAGRITKGAAIAMQTRIYLYEKKYDEVKKAFEKFQNECGGEYSLVAPEDYTWQFSLDGEHCSSSILEVNMYNSSTQSSYNVNNGNRHVLMSMPRNMTIGFGCAQPTQALADAYDAEGDVIRKKTTLLSTEEAIEIETAAKGDVAPVTDDRTGWYNRKLYLAPGQREENRGNNQPTNLRLIRLAEVYLNYAEACYFSGDIANAQKYLNEVRSHVNLAPKNHTGSQLFEDIMNERHLEFGMEGFRFFDVVRVGWGEKVFNGTKKAEFGAKTPFSAGAEVLPIPQTEIDISDGLITN
[1]
  glycan array binding signal (z-score): -0.024
[2]
  glycan array binding signal (z-score): 0.594
[3]
  glycan array binding signal (z-score): -0.163
[4]
  glycan array binding signal (z-score): -0.684
[5]
  glycan array binding signal (z-score): -0.526
[6]
  glycan array binding signal (z-score): -0.269
[7]
  glycan array binding signal (z-score): 1.27
[8]
  glycan array binding signal (z-score): -0.381
[9]
  glycan array binding signal (z-score): 0.376
[10]
  glycan array binding signal (z-score): -0.77
[11]
  glycan array binding signal (z-score): -0.328
[12]
  glycan array binding signal (z-score): 0.931
[13]
  glycan array binding signal (z-score): 0.491
[14]
  glycan array binding signal (z-score): -0.628
[15]
  glycan array binding signal (z-score): -0.163
[16]
  glycan array binding signal (z-score): -0.182
[17]
  glycan array binding signal (z-score): -0.185
[18]
  glycan array binding signal (z-score): 0.32
[19]
  glycan array binding signal (z-score): -0.335
[20]
  glycan array binding signal (z-score): -0.508
GlcNAc(b1-3)Fuc
  glycan array binding signal (z-score): -0.002
GlcNAc(b1-3)Gal
  glycan array binding signal (z-score): -0.646
[21]
  glycan array binding signal (z-score): 0.323
GlcNAc(b1-3)Gal(b1-4)Glc
  glycan array binding signal (z-score): 0.46
[22]
  glycan array binding signal (z-score): -0.584
[23]
  glycan array binding signal (z-score): 0.025
[24]
  glycan array binding signal (z-score): 0.465
[25]
  glycan array binding signal (z-score): 0.924
[26]
  glycan array binding signal (z-score): -0.191
[27]
  glycan array binding signal (z-score): 1.59
[28]
  glycan array binding signal (z-score): 0.425
[29]
  glycan array binding signal (z-score): 0.603
[30]
  glycan array binding signal (z-score): 0.308
[31]
  glycan array binding signal (z-score): 0.303
[32]
  glycan array binding signal (z-score): 0.489
[33]
  glycan array binding signal (z-score): 1.23
[34]
  glycan array binding signal (z-score): 0.171
[35]
  glycan array binding signal (z-score): 0.329
